Results are given in words; binding and its absence hold for the method and conditions named.
T1: biotinylated human MICAL1^CC (residues K918-G1067) (human) (UniProt Q8TDZ2)
T1 sequence (chain, biotin on the Avi tag (biotinylated in vivo)): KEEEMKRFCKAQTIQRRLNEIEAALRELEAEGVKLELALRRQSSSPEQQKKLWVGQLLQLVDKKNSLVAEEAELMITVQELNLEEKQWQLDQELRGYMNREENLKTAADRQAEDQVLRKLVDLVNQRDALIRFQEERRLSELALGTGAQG

T2: human MICAL1 (residues M1-G1067) (human), Q8TDZ2
T2 chain: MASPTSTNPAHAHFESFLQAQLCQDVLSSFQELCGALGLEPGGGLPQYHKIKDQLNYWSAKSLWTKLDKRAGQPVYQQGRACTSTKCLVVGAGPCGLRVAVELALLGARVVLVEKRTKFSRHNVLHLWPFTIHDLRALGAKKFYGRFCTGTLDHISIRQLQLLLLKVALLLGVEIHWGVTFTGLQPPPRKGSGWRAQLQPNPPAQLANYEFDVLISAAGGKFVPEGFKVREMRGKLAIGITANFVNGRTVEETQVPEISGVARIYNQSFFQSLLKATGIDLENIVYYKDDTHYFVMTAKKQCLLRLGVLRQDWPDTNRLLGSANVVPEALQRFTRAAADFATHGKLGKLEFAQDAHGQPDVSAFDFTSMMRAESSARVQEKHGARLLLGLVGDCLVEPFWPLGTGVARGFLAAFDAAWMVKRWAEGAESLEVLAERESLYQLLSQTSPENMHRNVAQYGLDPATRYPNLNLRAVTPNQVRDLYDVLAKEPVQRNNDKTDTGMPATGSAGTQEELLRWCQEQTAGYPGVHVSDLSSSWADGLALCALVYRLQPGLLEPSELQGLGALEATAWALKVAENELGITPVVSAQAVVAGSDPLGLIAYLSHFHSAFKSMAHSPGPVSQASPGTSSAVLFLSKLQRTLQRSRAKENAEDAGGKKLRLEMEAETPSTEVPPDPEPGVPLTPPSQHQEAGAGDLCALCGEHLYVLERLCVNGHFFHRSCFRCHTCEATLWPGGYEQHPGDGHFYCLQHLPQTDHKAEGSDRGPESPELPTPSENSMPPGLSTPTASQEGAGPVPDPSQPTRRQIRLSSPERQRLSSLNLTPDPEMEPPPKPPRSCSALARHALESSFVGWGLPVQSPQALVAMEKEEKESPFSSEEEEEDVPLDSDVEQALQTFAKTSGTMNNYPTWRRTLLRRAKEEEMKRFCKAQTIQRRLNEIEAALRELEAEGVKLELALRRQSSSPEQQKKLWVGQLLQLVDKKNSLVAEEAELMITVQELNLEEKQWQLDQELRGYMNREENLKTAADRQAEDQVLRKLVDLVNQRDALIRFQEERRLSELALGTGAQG


Assays:
[1] = target: T1, biotinylated human MICAL1^CC (residues K918-G1067) (human); experiment: BLI; biotinylated CC domain immobilised (8.8 µg/ml) on Octet SAX biosensors, MO or MICAL1^ΔCC as analyte; 20 mM HEPES pH 7.4, 150 mM NaCl, 2 mM DTT, 2 mM MgCl2, 0.05% Tween 20, 20 °C; duplicates; both purified
[2] = target: T2, human MICAL1 (residues M1-G1067) …; experiment: SEC-MALS; Agilent Biosec-3 column; 15 mM Tris-HCl pH 8.0, 150 mM NaCl, 2 mM DTT, 25 °C; initial concentrations 2.0, 1.0 and 0.5 mg/ml; both purified; conditions: remark: other sources report otherwise
[3] = target: T2, human MICAL1 (residues M1-G1067) …; experiment: AUC; sedimentation velocity, 40,000 rpm; 15 mM Tris-HCl pH 8.0, 150 mM NaCl, 2 mM DTT; 1 and 5 mg/ml (8 and 40 µM); both purified; conditions: remark: other sources report otherwise

Row | Binder | binding [1] | binding [2] | binding [3]
1 | human MICAL1^MO (residues T7-E489) (domain or fragment, UniProt Q8TDZ2 7-489) TNPAHAHFESFLQAQLCQDVLSSFQELCGALGLEPGGGLPQYHKIKDQLNYWSAKSLWTKLDKRAGQPVYQQGRACTSTKCLVVGAGPCGLRVAVELALLGARVVLVEKRTKFSRHNVLHLWPFTIHDLRALGAKKFYGRFCTGTLDHISIRQLQLLLLKVALLLGVEIHWGVTFTGLQPPPRKGSGWRAQLQPNPPAQLANYEFDVLISAAGGKFVPEGFKVREMRGKLAIGITANFVNGRTVEETQVPEISGVARIYNQSFFQSLLKATGIDLENIVYYKDDTHYFVMTAKKQCLLRLGVLRQDWPDTNRLLGSANVVPEALQRFTRAAADFATHGKLGKLEFAQDAHGQPDVSAFDFTSMMRAESSARVQEKHGARLLLGLVGDCLVEPFWPLGTGVARGFLAAFDAAWMVKRWAEGAESLEVLAERESLYQLLSQTSPENMHRNVAQYGLDPATRYPNLNLRAVTPNQVRDLYDVLAKE | no binding (tested: 27 µM) |  | 
2 | human MICAL1 (residues M1-G1067), Q8TDZ2 1-1067 (protein) MASPTSTNPAHAHFESFLQAQLCQDVLSSFQELCGALGLEPGGGLPQYHKIKDQLNYWSAKSLWTKLDKRAGQPVYQQGRACTSTKCLVVGAGPCGLRVAVELALLGARVVLVEKRTKFSRHNVLHLWPFTIHDLRALGAKKFYGRFCTGTLDHISIRQLQLLLLKVALLLGVEIHWGVTFTGLQPPPRKGSGWRAQLQPNPPAQLANYEFDVLISAAGGKFVPEGFKVREMRGKLAIGITANFVNGRTVEETQVPEISGVARIYNQSFFQSLLKATGIDLENIVYYKDDTHYFVMTAKKQCLLRLGVLRQDWPDTNRLLGSANVVPEALQRFTRAAADFATHGKLGKLEFAQDAHGQPDVSAFDFTSMMRAESSARVQEKHGARLLLGLVGDCLVEPFWPLGTGVARGFLAAFDAAWMVKRWAEGAESLEVLAERESLYQLLSQTSPENMHRNVAQYGLDPATRYPNLNLRAVTPNQVRDLYDVLAKEPVQRNNDKTDTGMPATGSAGTQEELLRWCQEQTAGYPGVHVSDLSSSWADGLALCALVYRLQPGLLEPSELQGLGALEATAWALKVAENELGITPVVSAQAVVAGSDPLGLIAYLSHFHSAFKSMAHSPGPVSQASPGTSSAVLFLSKLQRTLQRSRAKENAEDAGGKKLRLEMEAETPSTEVPPDPEPGVPLTPPSQHQEAGAGDLCALCGEHLYVLERLCVNGHFFHRSCFRCHTCEATLWPGGYEQHPGDGHFYCLQHLPQTDHKAEGSDRGPESPELPTPSENSMPPGLSTPTASQEGAGPVPDPSQPTRRQIRLSSPERQRLSSLNLTPDPEMEPPPKPPRSCSALARHALESSFVGWGLPVQSPQALVAMEKEEKESPFSSEEEEEDVPLDSDVEQALQTFAKTSGTMNNYPTWRRTLLRRAKEEEMKRFCKAQTIQRRLNEIEAALRELEAEGVKLELALRRQSSSPEQQKKLWVGQLLQLVDKKNSLVAEEAELMITVQELNLEEKQWQLDQELRGYMNREENLKTAADRQAEDQVLRKLVDLVNQRDALIRFQEERRLSELALGTGAQG |  | no binding (tested: 2.0 mg/ml) | no binding (tested: 40 µM)
